Key:
Assay type in all cases: cell-based
[1] = test system: lung SCN (SCLC) and lung adeno (LUAD) cell lines; test: GDSC drug sensitivity (log IC50), lung SCN versus lung adeno cell lines, Student's t-test
Experimental: (§1) Analogous to the protein and gene expression-based analysis, PCA was performed on the matrix of drug sensitivity IC50 values across lung adeno and lung SCN cell lines using all drugs in the screen. […] The inventors then projected all other cell lines onto this PCA space.
For LUAD and SCLC cell lines, differential sensitivity to each drug was calculated using the Student's t-test. These drugs were then ranked by the t-test statistic. Annotation on drug target and target pathway was obtained from the pharmacogenomics screen published by Iorio et al. From the annotation on drug targets, a list of genes or biological targets was obtained. […] Missing values in the drug sensitivity data were imputed using the weighted average of k-nearest neighbors (n=3). For SCLC and LUAD samples that were used as training data, k-Nearest Neighbors (kNN) imputation was performed on the lung samples alone. kNN imputation was then then performed on all other cell lines together, excluding the SCLC and LUAD samples. PCA was performed on the imputed data. The inventors then projected the drug data for all lines onto the PCA defined on lung SCLC and LUAD, including cancer of hematological and neuroectodermal origin. Projected points (all lines excluding lung SCLC and LUAD) in the drug sensitivity plot were annotated by their expression projection values. […]

[2] = test system: blood cancer cell lines versus non-blood cell lines; test: GDSC drug sensitivity (log IC50), blood versus non-blood cell lines
Experimental: as §1
(§2) Particularly interesting were drugs with high differential sensitivity in both lung SCN versus adeno, and blood versus non-blood cell line comparisons, supporting that the drug acts through a shared SCN-blood mechanism. […] Of note, blood cancers and the majority of, but not all, SCN cancers grow in suspension in vitro. […] The parallel drug sensitivities of lung SCN and blood cancers (R=0.68) was maintained when the analysis was restricted to the 31% of SCLC lines in the drug sensitivity database that grow adherent in culture (R=0.69; n=20 adherent, n=6 semi-adherent, n=38 suspension) (FIG. 15D). Furthermore, SRBCTs largely grow adherent in culture (n=50 adherent, n=6 semi-adherent, n=6 suspension).
For LUAD and SCLC cell lines, differential sensitivity to each drug was calculated using the Student's t-test. These drugs were then ranked by the t-test statistic. Annotation on drug target and target pathway was obtained from the pharmacogenomics screen published by Iorio et al. From the annotation on drug targets, a list of genes or biological targets was obtained. […]

[3] = test system: small-round-blue cell tumor (SRBCT) cell lines; test: GDSC drug sensitivity (log IC50), SRBCT cell lines
Excerpt: as §2
For LUAD and SCLC cell lines, differential sensitivity to each drug was calculated using the Student's t-test. These drugs were then ranked by the t-test statistic. Annotation on drug target and target pathway was obtained from the pharmacogenomics screen published by Iorio et al. From the annotation on drug targets, a list of genes or biological targets was obtained. […] Missing values in the drug sensitivity data were imputed using the weighted average of k-nearest neighbors (n=3). […]

SMILES: Nc1ccc(C(=O)Nc2cccc(-c3nc(N4CCOCC4)c4oc5ncccc5c4n3)c2)cn1 [YM201636]
- SCN - SCLC vs LUAD lung cancer signlogp [1]: 1.35
- Blood vs OTHER signlogp [2]: 39.68
- SRBCT vs OTHER signlogp [3]: 7.71
